Record: PubChem BioAssay AID720505 (Drosophila RNAi Screening Center, 2013)

Screen: 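Genes needed for store-operated calcium entry in fly cells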 (primary screen)
System: Drosophila S2R+ cells
Knock-down reagent: long dsRNA against Drosophila genes
Treatment: thapsigargin (2 µM) in calcium-free buffer to empty internal stores, then 2 mM calcium added back
Detection: 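Stores emptied by 2 µM thapsigargin without calcium, then 2 mM calcium re-added; fluo-4 fluorescence followed by FLIPR in 384-well plates, per-well averaged endpoint, raw; two screen passes, some wells retested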
Scale: calcium signal and retest calcium signal: higher = more calcium entry after store depletion
Rule for the call: 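Knock-downs counted as hits when calcium entry dropped relative to STIM1 positive and Rho1 negative controls present on each plate; roughly 1500 genes called, with reductions of differing size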
Calls: active = called as lowering calcium entry; inactive = not called
The deposit covers about 20,000 reagents; shown is an unselected part of those that have a named target and a result. Of all reagents, about 2,100 (10%) were called active. 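Raw plate signals without normalisation; calls rest on control-based scores that were not deposited; replicate 2 separates called from uncalled poorly.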 Entries without a mark were called inactive. Reagents against one gene are numbered here. Reagent sequences are not shown. Not given: the amount of reagent, the time to read-out.

After knock-down of Prp31, the screen gave calcium signal, replicate 1 = 90.3; calcium signal, replicate 2 = 81.4. Depletion of PGRP-LB came out at: calcium signal, replicate 1 = 72.4 (active); calcium signal, replicate 2 = 93.5. With knock-down of Hr4 #1, the record shows calcium signal, replicate 1 = 3669; calcium signal, replicate 2 = 115; retest calcium signal, replicate 1 = 171; retest calcium signal, replicate 2 = 134. Hr4 #2 gave calcium signal, replicate 1 = 135; calcium signal, replicate 2 = 155. For Hr4 #3, the values are calcium signal, replicate 1 = 107 (active); calcium signal, replicate 2 = 77.6. Hr4 #4 gave calcium signal, replicate 1 = 76.5; calcium signal, replicate 2 = 126.

Against Hr4 #5, the values are calcium signal, replicate 1 = 107; calcium signal, replicate 2 = 112. For Hr4 #6, the entry reads calcium signal, replicate 1 = 139; calcium signal, replicate 2 = 160. CG4558 gave calcium signal, replicate 1 = 149; calcium signal, replicate 2 = 103. Against RpS15 the deposit lists calcium signal, replicate 1 = 90.9 (active); calcium signal, replicate 2 = 118. With knock-down of CG15073, the screen gave calcium signal, replicate 1 = 195; calcium signal, replicate 2 = 131. For Jon44E the deposit lists calcium signal, replicate 1 = 131; calcium signal, replicate 2 = 151.

For Dtd the deposit lists calcium signal, replicate 1 = 186; calcium signal, replicate 2 = 146. Against CG3655 #1, the entry reads calcium signal, replicate 1 = 84.9; calcium signal, replicate 2 = 145. For CG3655 #2, the entry reads calcium signal, replicate 1 = 96.9; calcium signal, replicate 2 = 133. For CG3655 #3, the values are calcium signal, replicate 1 = 104; calcium signal, replicate 2 = 154. After knock-down of atk #1, the screen gave calcium signal, replicate 1 = 6114; calcium signal, replicate 2 = 115. Knock-down of atk #2 resulted in: calcium signal, replicate 1 = 136; calcium signal, replicate 2 = 165.

Su(dx) scored calcium signal, replicate 1 = 144; calcium signal, replicate 2 = 284.

Reformatted: entries from further up
{"target": "Dtd", "reagent": 1, "calcium signal, replicate 1": 186, "calcium signal, replicate 2": 146}
{"target": "CG3655", "reagent": 1, "calcium signal, replicate 1": 84.9, "calcium signal, replicate 2": 145}
